Measurements reported in patent US20230203158A1.
Where a chain is given by its changes, count along the chain named. Results are given in words; binding and its absence hold for the method and conditions named. Some binding calls cover weakened binding; strength is not graded here. Sequences can lack the tags named with a protein.

T1: recombinant His-tagged human Notch2 NRR domain, expressed and purified in house (human) (UniProt Q04721)
T1 sequence (looked up): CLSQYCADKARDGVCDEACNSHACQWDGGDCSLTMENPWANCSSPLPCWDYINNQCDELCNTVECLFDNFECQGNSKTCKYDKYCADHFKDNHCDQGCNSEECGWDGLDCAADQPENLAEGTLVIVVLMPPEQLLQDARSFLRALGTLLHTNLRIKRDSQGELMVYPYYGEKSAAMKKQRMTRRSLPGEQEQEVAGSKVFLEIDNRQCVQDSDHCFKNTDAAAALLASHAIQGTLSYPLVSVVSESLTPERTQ

T2: recombinant His-tagged murine Notch2 NRR domain, expressed and purified in house (murine) (UniProt O35516)
T2 sequence (looked up): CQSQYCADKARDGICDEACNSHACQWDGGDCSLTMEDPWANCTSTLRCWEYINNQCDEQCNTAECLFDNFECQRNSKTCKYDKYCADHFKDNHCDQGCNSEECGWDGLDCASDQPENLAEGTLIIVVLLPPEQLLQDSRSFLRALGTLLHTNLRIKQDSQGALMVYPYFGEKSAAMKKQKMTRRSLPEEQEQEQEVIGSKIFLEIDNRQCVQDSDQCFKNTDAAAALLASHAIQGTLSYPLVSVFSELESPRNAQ

B1: PRO034 (anti-Notch2 mAb 1 on a human IgG1 LALA-PG backbone, kappa light chain) (antibody, V domains shown)
VH: EVQLVESGGGLVQPGGSLRLSCAASGYSFTSYGMSWVRQAPGKGLEWVSYIYPYSGATYYADSVKGRFTISADTSKNTAYLQMNSLRAEDTAVYYCARHSGYYRISSAMDVWGQGTLVTVSS
VL: DIQMTQSPSSLSASVGDRVTITCRASQSISSYLAWYQQKPGKAPKLLIYGASSRASGVPSRFSGSGSGTDFTLTISSLQPEDFATYYCQQYYSSPLTFGQGTKVEIKR
B2: PRO037 (anti-Notch2 mAb 4 on a human IgG1 LALA-PG backbone, kappa light chain) (antibody, V domains shown)
VH: B1 VH with S28T, T30S
VL: B1 VL with I29N, S30R, S31R, Y32F, S93I
B3: PRO035 (anti-Notch2 mAb 2 on a human IgG1 LALA-PG backbone, kappa light chain) (antibody, V domains shown)
VH: B1 VH with S28T, T30S
VL: B1 VL with I29N, S30R, S31R, Y32F, S93I
B4: PRO036 (anti-Notch2 mAb 3 on a human IgG1 LALA-PG backbone, kappa light chain) (antibody, V domains shown)
VH: B1 VH with S28T, T30S
VL: B1 VL with I29V, S30R, Y32F, G50R, S53I, S93I, L96W

Each binder was assayed against T1, recombinant His-tagged human Notch2 NRR domain, expressed and purified in house (human) (assay: ELISA, His-tagged Notch2 NRR domain coated at 1 µg/mL).

| binding | Binder |
| --- | --- |
| binds | B1 |
| binds | B2 |
| binds | B3 |
| binds | B4 |

The binders below were run against T2, recombinant His-tagged murine Notch2 NRR domain, expressed and purified in house (murine) in the same assay as above.

| binding | Binder |
| --- | --- |
| binds | B1 |
| binds | B2 |
| binds | B3 |
| binds | B4 |

These binders were tested against T1, recombinant His-tagged human Notch2 NRR domain, expressed and purified in house (human) (assay: BLI, antibody on anti-human IgG Fc biosensors, Notch2 NRR protein 1000 nM to 31 nM).

| binding | Binder |
| --- | --- |
| binds | B1 |
| binds | B2 |
| binds | B3 |
| binds | B4 |

Each binder was assayed against T2, recombinant His-tagged murine Notch2 NRR domain, expressed and purified in house (murine) in the same assay as above.

| binding | Binder |
| --- | --- |
| binds | B1 |
| binds | B2 |
| binds | B3 |
| binds | B4 |
